# Laboratory results from article PMC12040169 (PLOS Biology, 2025).
# The other results are listed elsewhere or left out.
# Test system: T1, CTL2-GFP (C. trachomatis L2/434/Bu, GFP-expressing)
# T1 construct: L2/434/Bu, GFP-expressing
# Set-up: species or system HeLa; Intracellular C. trachomatis growth in HeLa cells, bulk GFP fluorescence relative to DMSO
# Details: bulk GFP, single well; 28.5 h, 10 µM; inhibitor
row,SMILES,% of control remaining
1,CCCOc1ccc(C(CC(=O)O)NS(=O)(=O)c2ccc(F)cc2)cc1 (stereo not drawn) [CBK287139],100%
2,COc1ccccc1NC(=S)NCCc1ccc(S(N)(=O)=O)cc1 [CBK266201],126.701%
3,Cc1cc(COc2nccnc2N2CCN(CCCC#N)CC2)no1 [CBK084198],114.407%
4,Cn1cc(CNC(=O)Nc2cc(C(=O)N3CCOCC3)ccc2Cl)cn1 [CBK307080],121.713%
5,CC(C)n1nccc1NC(=O)CCn1ccnc1-c1ccccc1 [CBK281536],136.005%
6,O=C(O)c1ccc(CSc2nc3ccccc3[nH]2)cc1 [CBK286892],126.397%
7,O=C(NCc1cccnc1)c1cc(S(=O)(=O)N2CCCC2)c(Cl)cc1Cl [CBK264455],97.788%
8,CC(C)(C)c1cc(NC(=O)CN2CCN(c3cccc(Cl)c3)CC2)on1 [CBK304525],135.247%
9,CC(C)c1nc(NCc2nnc3n2CCC3)nc(N(C)C)n1 [CBK305117],133.708%
10,COc1ccc(CSCC(N)C(=O)O)cc1Br (stereo not drawn) [CBK264026],119.713%
11,O=C(N[C@H]1C[C@H]2C(=O)Nc3ccccc3C(=O)N2C1)c1cccnc1 [CBK289356],98.8237%
12,O=C(NCCn1nc2c(cc1=O)CCCCC2)c1ccc(F)cc1 [CBK283279],103.445%
13,CCCOc1ccc(S(=O)(=O)NCc2ccncc2)c2ccccc12 [CBK268780],122.728%
14,CCN(CC)C(=O)c1[nH]c2ccccc2c1NS(=O)(=O)c1c(C)noc1C [CBK050117],123.925%
15,Cc1cc(C)n(-c2nc(NC(C)(C)C)nc(N3CCOCC3)n2)n1 [CBK269810],106.222%
16,COc1ccc2[nH]c([C@H]3CCN(S(C)(=O)=O)C3)nc2c1 [CBK289377],108.922%
17,O=C(O)C1CCN(Cc2cnnn2-c2ccccc2F)CC1 [CBK287197],132.525%
18,COc1ccccc1CN(CCCn1ccnc1)Cc1ccoc1 [CBK283123],113.824%
19,CCC(C)NC1=NC(=O)C(CC(=O)N(C)c2ccccc2)S1 (stereo not drawn) [CBK059110T],118.137%
20,CCn1cc(-c2cncn2CCCn2nc(C)cc2C)cn1 [CBK281770],87.9224%
21,Cc1cccc(C(C)CNC(=O)N2CCC(Cc3cnn(C)c3)C2)c1 (stereo not drawn) [CBK305301],83.1725%
22,CC(C)(C)c1ccc(OCC(=O)Nn2cnnc2)cc1 [CBK027576],148.014%
23,COCCCOc1cc(NC(C)C)ncn1 [CBK115885],123.188%
24,c1ccc(-c2nccnc2OCCc2cccs2)cc1 [CBK106673],100%
25,CCS(=O)(=O)N1C[C@H]2CC[C@](O)(c3ccc(C)cc3)[C@H]2C1 [CBK285296],89.9849%
26,Cc1ccccc1C(=O)NCC(=O)Nc1cc2ccccc2c(Br)n1 [CBK063298],103.628%

# A stretch of the results above:
row,SMILES,% of control remaining
21,Cc1cccc(C(C)CNC(=O)N2CCC(Cc3cnn(C)c3)C2)c1 (stereo not drawn) [CBK305301],83.1725%
22,CC(C)(C)c1ccc(OCC(=O)Nn2cnnc2)cc1 [CBK027576],148.014%
23,COCCCOc1cc(NC(C)C)ncn1 [CBK115885],123.188%
24,c1ccc(-c2nccnc2OCCc2cccs2)cc1 [CBK106673],100%
25,CCS(=O)(=O)N1C[C@H]2CC[C@](O)(c3ccc(C)cc3)[C@H]2C1 [CBK285296],89.9849%

# Carrying on:

row,SMILES,% of control remaining
1,CCCc1c(C(=O)NC2CC2)cnn1-c1ccc(Cl)cc1 [CBK006334],112.6%
2,CNc1cc(N2CCN(S(=O)(=O)c3ccc(C)cc3)CC2)ccc1[N+](=O)[O-] [CBK266005],87.8024%
3,CN1CCN(C(=O)Cc2csc(-c3ccc(Cl)cc3)n2)CC1 [CBK107301],124.851%
4,COc1ccc(C(=O)N2CCC3(CCN(CCN4CCCCC4)C3)C2)cc1OC (stereo not drawn) [CBK137113T],117.746%
5,CC(C)(C)c1ccc(C(=O)Nc2cnn(CCCC(=O)O)c2)cc1 [CBK269929],114.579%
6,NC(=O)CN1CC2(CCN(CCS(=O)(=O)c3ccccc3)CC2)c2ccccc21 [CBK126786],125.623%
7,CC(=O)N1CCC(Cn2nc(-c3ccccc3)ccc2=O)CC1 [CBK282405],101.02%
8,Cc1cc(C(=O)N2CCC(c3nnc(CN(C)C)n3C)CC2)ccc1F [CBK306748],100.158%
9,FC(F)(F)Oc1ccc(-c2c[nH]c([C@@H]3COCCN3Cc3c[nH]cn3)n2)cc1 [CBK289303],72.8026%
10,CCOC(=O)CN1C(=O)S/C(=C/c2cc(Cl)c(OCC(=O)O)c(Br)c2)C1=O [CBK264614],100%
11,CCOC(=O)c1cnn(C2CCCN(Cc3cnnn3C)C2)c1 (stereo not drawn) [CBK305122],103.739%
12,CN(C)S(=O)(=O)NCCc1ccc(S(N)(=O)=O)cc1 [CBK022388],151.987%
13,CN1CCCN(Cc2ccc3c(c2)c(=O)c(C(=O)NCc2ccc(Cl)cc2)cn3C)CC1 [CBK018019],115.522%
14,O=C(c1sc2ccccc2c1Cl)N1CCN(CCN2C(=O)c3cccc4cccc(c34)C2=O)CC1 [CBK262557],110.866%
15,CCCCC(=O)NC(Nc1cc(C)ccn1)(C(F)(F)F)C(F)(F)F [CBK009331],154.261%
16,CCCn1ccnc1CNc1nc(C(C)(C)C)nc2c1cnn2C [CBK306739],123.058%
17,Cc1cc2c(cc1S(=O)(=O)NCCOc1cccc(C(=O)O)c1)OCC(=O)N2 [CBK299770],173.238%
18,C=C(C)Cn1nc(C)c(CN(C)CCN2CCCCC2)c1C [CBK282483],128.352%
19,CN(C)c1ccc(C(=O)N2CC[C@@H](CC(=O)O)[C@@H](CC3=NCCc4ccccc43)C2)cc1 [CBK289159],143.449%
20,CN(c1cccc(C#N)c1)C1CCN(c2nc3c(cnn3C)c(=O)[nH]2)C1 (stereo not drawn) [CBK305462],105.303%
21,CC(Oc1cccc(Cl)c1)C(=O)Nc1ncccn1 (stereo not drawn) [CBK265450],100%
22,Cc1cc(SCC(=O)Nc2cccc3ccccc23)nc2c(C)cccc12 [CBK268005],102.75%
23,FC(F)(F)c1cccc(OCCOc2ccccc2)n1 [CBK115835],128.68%
24,Cc1ccc(C)c(-c2csc(NS(=O)(=O)c3cccc(C(=O)O)c3)n2)c1 [CBK296696],129.444%
25,COCCc1noc(CC2CCN(c3ccc(C#N)nc3)CC2)n1 [CBK304094],104.751%
26,COc1cccc2cc(C(=O)N3CCN(C4CCN(C)CC4)CC3)oc12 [CBK149086],100%

row,SMILES,% of control remaining
1,CC(=O)Nc1cccc(C(=O)N2CCC(OCc3ccccn3)CC2)c1 [CBK307009],138.22%
2,O=c1n(-c2cccc(C(F)(F)F)c2)ccn1S(=O)(=O)c1ccc(N2CCOCC2)nc1 [CBK106590],103.817%
3,N#Cc1cccc(NC(=O)NC[C@H]2C[C@@H]3CC[N@]2C[C@@H]3CN2CCCCC2)c1 [CBK288765],145.466%
4,C[C@H](NC1=NC(=O)[C@@](C)(C(C)(C)O)S1)c1ccc(F)cc1 [CBK138436],91.9967%
5,CC12CN3CC(C)(CN(C1)C3c1ccc(O)cc1)C2O (stereo not drawn) [CBK262663],104.653%
6,Cc1ccc(C2(O)CCN(C(=O)CC3CCN(C(=O)CC4CCCCC4)CC3)C2)cc1 (stereo not drawn) [CBK286132],147.77%
7,Cc1ccccc1-c1noc(CSc2nnc(-c3ccncc3)n2-c2ccc(F)cc2)n1 [CBK269089],108.415%
8,O=C1CCC(=O)N1CCn1c(=O)n(C(=O)CCCOc2ccc(Cl)cc2)c2ccccc21 [CBK106496],166.967%
9,Cc1ccc(C(C)C)c(OC(=O)c2ccc3nccnc3c2)c1 [CBK269114],124.274%
10,CN1CCN(C(=O)c2[nH]c3ccccc3c2NS(=O)(=O)c2cc(F)c(Br)cc2F)CC1 [CBK050051],113.924%
11,O=C(Nc1ccc(Cl)c(C(=O)O)c1)c1cccc(-n2cnnc2)c1 [CBK270016],168.83%
12,Cc1ccc(NC(=O)CSc2nc3[nH]ncc3c(=O)[nH]2)cc1 [CBK287675],119.739%
13,O=C(O)CC1CCC2(CC1)Cc1ccccc1C2 [CBK012397],115.728%
14,O=C(COc1ccc(-c2ccccc2)cc1)N1CCN(S(=O)(=O)c2ccc([N+](=O)[O-])cc2)CC1 [CBK264297],100%
15,O=[N+]([O-])c1ccc(N2CCN(S(=O)(=O)c3ccc4ccccc4c3)CC2)c(C(F)(F)F)c1 [CBK264827],124.261%
16,CC1CCc2nn(CCNC(=O)Cc3ccccc3F)c(=O)cc2C1 (stereo not drawn) [CBK284482],130.837%
17,COC(=O)c1ccc(N2CCOCC2)c(NC(=O)COc2ccccc2)c1 [CBK270222],138.379%
18,COc1cccc(C(=O)Nc2cnn(CCCC(=O)O)c2)c1 [CBK269879],126.722%
19,Cc1cc(C)n(-c2ccc(N3CCC4(CC3)OCCO4)nn2)n1 [CBK305255],144.772%
20,O=[N+]([O-])c1ccc(CN2CCC(Oc3nccnc3OCC3COc4ccccc4O3)CC2)cc1 (stereo not drawn) [CBK082984T],106.78%
21,CC(SCc1ccccc1)C(=O)NC(C)c1ccccc1 (stereo not drawn) [CBK263772],103.691%
22,CCNC(=O)c1cnc(-c2ccc(F)cc2)c(-c2ccncc2)c1 [CBK037477],196.191%
23,CC(C)c1cc(C(=O)NC(c2ccccc2)c2ccnn2C)n(C)n1 (stereo not drawn) [CBK282535],111.848%
24,CC1CCCCN1C(=O)Cn1ncn2c(cc3ccsc32)c1=O (stereo not drawn) [CBK284201],97.1674%
25,Cc1noc2nc(C3CCN(C(=O)C4CC4C)CC3)cc(C(F)F)c12 (stereo not drawn) [CBK285307],127.96%
26,CCN1CCN(C(=O)CCn2c(C(F)F)cc3cccnc32)CC1 [CBK285026],142.07%
